# Reference: patent publication US3981868A
# For at least one compound, name, drawing or mass did not settle the structure.
# System: dl-PGE1-induced contraction of gerbil colon
# Test: inhibition of dl-PGE1-induced contraction of gerbil colon
# Conditions: sub-maximal challenge, 20 ng./ml. dl-PGE1; 50% inhibition of maximum response; approximate
smiles,measurement,value
CCCCCC/C=C/[C@H]1CCC(=O)[C@@H]1CCCCCCC(=O)N1CCOCC1 (relative stereo),ID50 vs. 20 ng. of PGE1 /ml.,0.5 µg/mL
